Results published in patent publication US20030162943A1.
Results are given in words; binding and its absence hold for the method and conditions named. Some entries that bind do so weakly or less than the wild type.

The chains behind the UniProt entries cited, without tags or fusion partners. Where a name states a change or a piece, a line headed by the entry shows the natural chain unless it says otherwise. Residues count along the entry.
UniProt O08707: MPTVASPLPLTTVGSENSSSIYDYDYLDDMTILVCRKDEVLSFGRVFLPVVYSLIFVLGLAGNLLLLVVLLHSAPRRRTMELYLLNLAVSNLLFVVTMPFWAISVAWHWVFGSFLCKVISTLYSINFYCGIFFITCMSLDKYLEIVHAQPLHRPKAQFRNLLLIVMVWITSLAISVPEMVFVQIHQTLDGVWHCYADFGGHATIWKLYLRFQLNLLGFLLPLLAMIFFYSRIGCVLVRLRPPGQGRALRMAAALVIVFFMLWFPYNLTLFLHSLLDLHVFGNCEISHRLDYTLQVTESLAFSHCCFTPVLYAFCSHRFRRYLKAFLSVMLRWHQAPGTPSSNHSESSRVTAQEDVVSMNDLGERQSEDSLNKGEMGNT
UniProt O00590: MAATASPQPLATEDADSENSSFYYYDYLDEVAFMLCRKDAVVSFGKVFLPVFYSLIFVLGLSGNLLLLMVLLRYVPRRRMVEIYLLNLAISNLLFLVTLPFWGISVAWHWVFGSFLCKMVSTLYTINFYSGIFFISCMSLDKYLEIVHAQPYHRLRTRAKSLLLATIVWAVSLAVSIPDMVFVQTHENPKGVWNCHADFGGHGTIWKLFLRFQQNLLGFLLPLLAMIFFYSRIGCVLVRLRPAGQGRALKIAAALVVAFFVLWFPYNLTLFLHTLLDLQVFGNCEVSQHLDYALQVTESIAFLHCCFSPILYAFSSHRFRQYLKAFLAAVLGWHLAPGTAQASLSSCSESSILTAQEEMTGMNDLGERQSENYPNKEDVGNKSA
UniProt P10148, residues 24-148: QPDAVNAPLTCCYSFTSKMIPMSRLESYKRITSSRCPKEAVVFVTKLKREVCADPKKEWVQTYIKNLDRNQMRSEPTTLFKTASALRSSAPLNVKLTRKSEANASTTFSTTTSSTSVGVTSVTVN

Assays:
murine D6 (murine) [1] = molecular target: murine D6 (murine) (UniProt O08707); assay: binding assays on CHO cells expressing murine D6
human D6 (human) = human D6 (human) (UniProt O00590); assay: displacement of 125I-murine MIP-1α on cells expressing human D6
murine D6 (murine) [2] = molecular target: murine D6 (murine) (UniProt O08707); assay: competition with 125I-murine MIP-1α on CHO cells stably expressing murine D6

Measured: binding

murine JE (from UniProt P10148 24-148) (ligand)
binds: murine D6 (murine) [1] | human D6 (human) | murine D6 (murine) [2]
